Reference: PubChem BioAssay AID504834 (National Center for Advancing Translational Sciences (NCATS), 2011)
The campaign covered roughly 320,000 compounds. About 22,000 (6.9%) were called active. This list was built around the results that the source calls inconclusive (neither active nor inactive); the mix of calls is not that of the screen. Calls follow the shape of the dose curve; as a rule, active = well fitted inhibition curve with a large enough effect; inconclusive = small, poorly fitted or top-dose-only effect, or another doubt; inactive = no such curve, though single readings can be large or run the other way. Potencies of inconclusive entries are doubtful fits and often do not repeat.

Assay: Primary qHTS for delayed death inhibitors of the malarial parasite plastid, 96 hour incubation
Conditions: P. falciparum luciferase reporter growth; series mostly up to 28.7 µM
Procedure, shortened: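 Readout is luminescence from an integrated firefly luciferase in P. falciparum. Red cells, 2% hematocrit and 0.05% parasitemia final, were cultured with compound through two parasite generations (96 hours) at 37 C, 5% CO2.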
Potency is read from the fitted curve at half-maximal effect.

Compound | Potency
Cc1ccc(NC(=O)COC(=O)Cn2cnc3ccccc32)c([N+](=O)[O-])c1 | inactive
O=C(CCCN1C(=O)/C(=C/c2ccccc2Cl)SC1=S)NNC(=O)c1ccncc1 | inconclusive: 18.5 µM [inhibitor, partial curve, poor fit]
CC(=O)Nc1cc2c(cc1NC(=O)Cn1nc(-c3ccc4c(c3)OCCO4)ccc1=O)OCCO2 | active: 9.28 µM
COc1ccc(C(=O)N/N=C(\C)CC(=O)Nc2ccc(N(C)C)cc2)c(OC)c1 | inconclusive: 18.5 µM [inhibitor, single point]
CN(Cc1cccc(Cl)c1)C(=O)C1CCN(C(=O)Nc2ccccc2)CC1 | inconclusive: 0.828 µM [inhibitor, partial curve, poor fit]
O=S(=O)(/N=C(/c1ccccc1)N1CCOCC1)c1ccc(Br)cc1 | inactive
CC(=O)c1cccc(NC(=O)C(OC(=O)c2cccs2)c2ccccc2)c1 (stereo not given) | inconclusive: 20.8 µM [inhibitor, single point]
CC(C)(C)NC(=O)NC(=O)COC(=O)Cc1coc2ccc3ccccc3c12 | inactive
CC12COC3(P(=O)(c4ccccc4)c4ccccc4)CC1CCC23CP(=O)(c1ccccc1)c1ccccc1 (stereo not given) | active: 0.928 µM
OCCN1CCN(c2nc(-c3ccccc3O)nc3ccccc23)CC1 | inconclusive: 11.7 µM [inhibitor, partial curve, poor fit]
O=C1OC(C(=O)Nc2ccccc2)Cc2ccccc21 (stereo not given) | inactive
CCN(CC)S(=O)(=O)c1cccc(C(=O)N/N=C(\C)c2cccs2)c1 | inactive
O=C1c2cccnc2C(=O)N1Cc1ccccc1 | inactive
Cc1onc(C(=O)N2C(C)CCCC2C)c1[N+](=O)[O-] (stereo not given) | inconclusive: 11.7 µM [inhibitor, single point]
CN(CC(=O)Nc1ccccc1Cl)C(=O)c1ccccc1SCC(=O)N1CCCC1 | inactive
Cc1cccc(NC(=S)N2CCN(c3cc(C)ccc3C)CC2)c1 | inactive
c1nc(NCCN2CCOCC2)c2c3c(sc2n1)CCCCC3 | inconclusive: 9.28 µM [inhibitor, partial curve, poor fit]
CCOCCn1c(=NC(=O)CSCC(=O)N2CCOCC2)sc2cc(OC)ccc21 | inconclusive: 2.08 µM [inhibitor, full curve]
Cn1c(SCC(=O)N/N=C/c2ccc([N+](=O)[O-])s2)nnc1-c1ccc(Cl)cc1 | active: 5.22 µM
O=C(NCCC1=CCCCC1)C1CCC(CNS(=O)(=O)c2ccccc2)CC1 (stereo not given) | inconclusive: 1.65 µM [inhibitor, partial curve, poor fit]
Cc1cc(C)n(-c2cc(N3CCN(C(=O)c4ccc(C(C)(C)C)cc4)CC3)ccc2[N+](=O)[O-])n1 | active: 9.28 µM
CCc1c(C)sc(NC(=O)c2cc(-c3ccco3)on2)c1C#N | inconclusive: 10.4 µM [inhibitor, partial curve]
COc1ccc(NC(=O)C2CSC(C)(C)N2C=O)cc1 (stereo not given) | inconclusive: 18.5 µM [inhibitor, single point]
COc1cc(CN(CC2CCCO2)C(=O)c2ccco2)cc(OC)c1OC (stereo not given) | inconclusive: 18.5 µM [inhibitor, single point]

A few values from the entries so far.
Entry for `c1nc(NCCN2CCOCC2)c2c3c(sc2n1)CCCCC3` under Potency: inconclusive: 9.28 µM [inhibitor, partial curve, poor fit]
Entry for `CC(=O)Nc1cc2c(cc1NC(=O)Cn1nc(-c3ccc4c(c3)OCCO4)ccc1=O)OCCO2` under Potency: active: 9.28 µM
Entry for `Cc1cc(C)n(-c2cc(N3CCN(C(=O)c4ccc(C(C)(C)C)cc4)CC3)ccc2[N+](=O)[O-])n1` under Potency: active: 9.28 µM

Further entries:

Compound | Potency
CN(Cc1cnn(C)c1)Cc1nc(-c2ccc(Cl)cc2)no1 | active: 9.28 µM
O=C(COC(=O)C1CCCN1C(=O)c1cccs1)Nc1ccc2c(c1)OCO2 (stereo not given) | inconclusive: 4.65 µM [inhibitor, partial curve, poor fit]
O=C1CN(S(=O)(=O)c2ccc(Cl)cc2C(F)(F)F)CCN1 | inconclusive: 4.15 µM [inhibitor, single point]
O=Cc1c(NC2CCCCC2)c2ccccc2[nH]c1=O | inconclusive: 18.5 µM [inhibitor, single point]
C[C@H](NC(=O)C1CC(=O)N(c2ccc3c(c2)OCCO3)C1)C(=O)N1CCC(C(=O)O)CC1 (stereo not given in full) | inactive
Cc1ccc(NC(=O)CSc2nnc(COc3ccc(C#N)cc3)n2-c2ccccc2)cc1C | active: 10.4 µM
CC(C)NC(=O)NC(=O)COC(=O)c1cccc(OC(F)F)c1 | inconclusive: 4.65 µM [inhibitor, partial curve, poor fit]
Cn1c(/C=C/c2ccc(Cl)cc2)nc2ccccc2c1=O | inconclusive: 10.4 µM [inhibitor, partial curve]
Fc1ccccc1N1CCN(c2cnc3ccccc3n2)CC1 | inactive
S=C(Nc1ccc(Cl)c(Cl)c1)N1CCN(c2ccccn2)CC1 | inactive
CCCSc1nc2sc3c(c2c(=O)n1-c1ccc(OC)cc1)CCN(C)C3 | active: 4.65 µM
CC(=O)NCC1CCCN(C(=O)c2oc3c(F)cccc3c2C)C1 (stereo not given) | inactive
COc1ccc(S(=O)(=O)N2CCN(C(=O)CCCN3C(=O)NC4(CCCC4)C3=O)CC2)cc1 | inconclusive: 18.5 µM [inhibitor, single point]
Cc1c(NCc2nc3ccccc3[nH]2)c(=O)n(-c2ccccc2)n1C | active: 13.1 µM
CC(C)(C)C(CO)NC(=O)c1ccc[nH]1 (stereo not given) | inactive
O=C(NNC(=S)NC(=O)c1ccccc1)c1ccc(O)cc1 | inconclusive: 11.7 µM [inhibitor, partial curve, poor fit]
OCCNCc1c(OCc2ccc(Cl)cc2)ccc2ccccc12 | inactive
CC(=O)N1c2ccc(S(=O)(=O)N3CCC(C(=O)NCc4ccc(F)cc4)CC3)cc2CC1C (stereo not given) | inconclusive: 1.47 µM [inhibitor, partial curve, poor fit]
CNC(=S)NNC(=O)c1cc(-c2cccnc2)nc2ccccc12 | inconclusive: 11.7 µM [inhibitor, partial curve]
Cc1ccccc1CN1CCN(C(=O)c2cc(-c3ccncc3)nc3ccccc23)CC1 | inactive
CCOC(=O)c1cnn(Cc2ccccc2)c1N | inactive
CN(Cc1cccc(F)c1)C(=O)c1ccc(NS(=O)(=O)c2ccc3[nH]c(=O)[nH]c3c2)cc1 | inconclusive: 10.4 µM [inhibitor, single point]
COC(=O)C1=C(C)NC(C)=C(C(=O)OC)C1C(=O)OCc1nc2cc(C(=O)OC)ccc2c(=O)[nH]1 | inconclusive: 1.31 µM [inhibitor, partial curve, poor fit]
Cc1cc(NC(=O)CSc2nccn2-c2ccc(Cl)cc2)no1 | inconclusive: 16.5 µM [inhibitor, partial curve, poor fit]

Compound | Potency
O=C(Nc1ccc(F)cc1)c1ccccc1NC(=O)C1CC=CCC1C(=O)O (stereo not given) | inconclusive: 16.5 µM [inhibitor, single point]
O=C(Nc1nnc(-c2cccnc2)o1)c1ccccc1Cl | inactive
COc1ccccc1CNC(=O)COC(=O)/C=C/c1ccc(OC(F)F)c(OC)c1 | inconclusive: 16.5 µM [inhibitor, single point]
Cc1ccc(-n2ncc3c(=O)n(CC#N)cnc32)cc1C | inconclusive: 0.0738 µM [inhibitor, full curve, poor fit]
Cc1ccc(-c2cc(C(=O)N3CCCc4ccccc43)no2)cc1 | inconclusive: 18.5 µM [inhibitor, single point]
O=C1CCCN1CCC1CCCCN1Cc1nc(COc2ccccc2)no1 (stereo not given) | inconclusive: 14.7 µM [inhibitor, single point]
COc1ccccc1CNS(=O)(=O)c1c(C)nc2scc(C)n2c1=O | inactive
Oc1ccc(/C=N/Nc2ccnc3cc(Cl)ccc23)cc1O | active: 0.738 µM
COc1ccc(-c2cc(C(=O)N3CCCC(C(F)(F)F)C3)c3ccccc3n2)cc1OC (stereo not given) | inconclusive: 11.7 µM [inhibitor, single point]
Oc1c(C=Nc2cccnc2)sc2ccccc12 | inactive
O=C(NCc1nnc2c(C(F)(F)F)cc(Cl)cn12)c1ccco1 | inactive
Cc1ccccc1C(=O)NC(=S)Nc1ccc(N2CCN(C(=O)c3ccccc3)CC2)cc1 | inconclusive: 16.5 µM [inhibitor, single point]
CCOC(=O)N1CCC(NC(=O)CS(=O)(=O)Cc2nc(-c3ccc(C)cc3)oc2C)CC1 | inconclusive: 1.65 µM [inhibitor, full curve]
CCOC(=O)N1CCN(C(=O)c2ccc(-n3c(=S)[nH]c4ccccc4c3=O)cc2)CC1 | inconclusive: 11.7 µM [inhibitor, single point]
Cc1cc(C)n2cc(CSc3nnnn3-c3ccccc3)nc2n1 | active: 8.28 µM
COc1ccc(S(=O)(=O)Nc2ccc(Cl)cn2)c(C)c1C | inconclusive: 18.5 µM [inhibitor, single point]
CC1OC(O[C@H]2CC[C@]3(C)C4C=C[C@]56OC[C@@]7(CC[C@@H](C)[C@H](C)C75)[C@H](O)C[C@@]6(C)[C@]4(C)CC[C@H]3C2(C)C)C(OC2OC(CO)C(O)C(O)C2OC2OCC(O)C(O)C2O)C(O)C1O (stereo not given in full) | inconclusive: 10.4 µM [inhibitor, single point]
COc1cc(C(C)=O)ccc1OCC(=O)Nc1ccc(C)c(S(=O)(=O)N2CCCCCC2)c1 | inconclusive: 9.28 µM [inhibitor, single point]
Cc1ccc(N2C(=O)NC(=O)/C(=C\c3ccoc3)C2=O)cc1 | inconclusive: 0.828 µM [inhibitor, single point]
CCN(C(=O)COC(=O)c1cccnc1SC)c1c(N)n(Cc2ccccc2)c(=O)[nH]c1=O | inactive
O=S(=O)(Nc1ccc(Cl)cn1)c1cnc(Cl)c(Br)c1 | inactive
O=C(NCc1cccs1)c1noc2c1CCCCC2 | inconclusive: 18.5 µM [inhibitor, partial curve, poor fit]
